In article PMC6381112:
No constants are given. Whether binding was seen depends on the method and setting. Binding calls can cover weak binding; strength is not graded here. Where a sequence is shown, tags or fusion partners need not be part of it.

The chains behind the UniProt entries cited, without tags or fusion partners. Where a name states a change or a piece, a line headed by the entry shows the natural chain unless it says otherwise.
UniProt Q96AC1: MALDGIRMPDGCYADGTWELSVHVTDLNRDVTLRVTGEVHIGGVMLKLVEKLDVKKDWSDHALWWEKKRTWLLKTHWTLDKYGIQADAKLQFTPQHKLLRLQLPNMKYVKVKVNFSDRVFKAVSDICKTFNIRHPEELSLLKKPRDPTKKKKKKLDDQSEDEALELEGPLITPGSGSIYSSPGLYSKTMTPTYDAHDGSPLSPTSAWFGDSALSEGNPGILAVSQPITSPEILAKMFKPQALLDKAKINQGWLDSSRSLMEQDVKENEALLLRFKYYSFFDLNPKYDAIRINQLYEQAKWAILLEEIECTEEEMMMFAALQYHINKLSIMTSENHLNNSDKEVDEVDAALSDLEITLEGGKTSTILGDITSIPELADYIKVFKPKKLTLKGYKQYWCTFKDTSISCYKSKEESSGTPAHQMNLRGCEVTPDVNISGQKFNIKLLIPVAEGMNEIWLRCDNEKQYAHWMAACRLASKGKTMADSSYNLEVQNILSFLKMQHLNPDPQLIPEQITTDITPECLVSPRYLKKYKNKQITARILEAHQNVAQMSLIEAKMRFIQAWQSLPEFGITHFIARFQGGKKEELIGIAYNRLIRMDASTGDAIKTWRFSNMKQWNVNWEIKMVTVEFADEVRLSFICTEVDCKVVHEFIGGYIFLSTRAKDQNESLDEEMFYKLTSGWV

Legend:
[1] = target: GST-kindlin-2 with deletion of F1 (UniProt Q96AC1); test: pull-down; GST or GST-fusion proteins bound to glutathione-Sepharose beads incubated with purified His-tagged PYCR1 (0-40 μg ml^-1) for 2 h at 4 °C; washed with 20 mM Tris pH 7.5, 150 mM NaCl, 0.1% Triton; western blotting with anti-His and anti-GST; both purified
[2] = target: GST-kindlin-2 with deletion of F3 (UniProt Q96AC1); test: as above

B1: His-tagged PYCR1 (enzyme, UniProt P32322 1-319)
chain: MSVGFIGAGQLAFALAKGFTAAGVLAAHKIMASSPDMDLATVSALRKMGVKLTPHNKETVQHSDVLFLAVKPHIIPFILDEIGADIEDRHIVVSCAAGVTISSIEKKLSAFRPAPRVIRCMTNTPVVVREGATVYATGTHAQVEDGRLMEQLLSSVGFCTEVEEDLIDAVTGLSGSGPAYAFTALDALADGGVKMGLPRRLAVRLGAQALLGAAKMLLHSEQHPGQLKDNVSSPGGATIHALHVLESGGFRSLLINAVEASCIRTRELQSMADQEQVSPAAIKKTILDKVKLDSPAGTALSPSGHTKLLPRSLAPAGKD
binding [1]: binds | binding [2]: binds
